At least one structure is not confirmed: it was looked up by name or label, or the drawing left a doubt.
Tests used:
CT26 cells [1] = assay: CT26 subcutaneous tumor in BALB/c mice and BALB/c nude mice; format: in vivo, mouse
B16F10 cells [2] = assay: Adoptive transfer of drug-pretreated TRP2-loaded DC cells in B16F10 tumor-bearing mice; format: in vivo, mouse; settings: DC cells pretreated 24 h (Zol 5 μM, Sim 1 μM), then TRP2 8 h; C57BL/6 mice
4T1 cells [3] = assay: 4T1 subcutaneous tumor in BALB/c mice and BALB/c nude mice; format: in vivo, mouse
B16F10 cells [4] = assay: Expression of endoplasmic reticulum stress genes by Q-PCR; format: cell-based, mouse; settings: 10 μM for 60 h
B16F10 cells [5] = assay: Phagocytosis of drug-treated B16F10 cells by bone marrow-derived DC cells; format: cell-based, mouse; settings: confocal microscopy
Description: Method: C57/b6 mouse bone marrow cells were cultured in DC differentiation solution, RMPI 1640+10 ng/ml GM-CSF+10 ng/ml IL-4 containing 10% FBS for 7 days. It was ready for use when the percentage of DC cells was above 90%.
B16F10 cells were plated in 6-well plates at a density of 5×10^5. After being adhered for 12 hours, they were treated with Sim and Zol in the figure, and the control group was treated with normal culture medium. The cells treated with the drug were digested with trypsin, and the cells were obtained after centrifugation.
Cell Staining: Flow Cytometry Staining: B16F10 tumor cells were stained for 30 min in 1 ug/ml CFSE at room temperature, and washed twice with PBS after staining; BMDC cells were stained for 30 min in 1 uM CellTracker™ Red, and washed twice with PBS after staining. Cells were ready for use. Immunofluorescence staining: B16F10 cells were stained with DiD, and DC cells were stained with CFSE.
After the drug treatment, the B16F10 control group Ctrl, Sim treatment group, Zol treatment group, and DOX treatment group were co-incubated with DC cells in a 1:1 ratio for 3 hours in an incubator at 37° C., and fixed with 200 ul fluorescent antibody preservation solution (1 ml formaldehyde, 2 g glucose dissolved in 100 ml PBS) after the incubation. Flow cytometer BD FACSAria SORP was used for detection. Data was analyzed with Flojo 7.6.2 software. […]

4T1 cells [6] = assay: Tumor infiltration of T cells and DC cells, 4T1 subcutaneous model; format: in vivo, mouse; settings: 4T1 tumors, day 21 after transplantation; versus control group
CT26 cells [7] = assay: CT26 subcutaneous tumor with CD8 or CD4 neutralizing antibody; format: in vivo, mouse; settings: CT26, BALB/c; for antitumor activity in mice injected with CD8 antibody: CD8 neutralizing antibody 50 ug/mouse
BMDC cells = assay: Cross-presentation of OVA by drug-treated BMDC to OT-I/OT-II T cells; format: cell-based, mouse; settings: BMDC treated with Sim 1 μM or Zol 5 μM 24 h; OVA 100 μg/mL, 72 h; versus OVA-treated group alone
B16F10 cells [8] = assay: Type I interferon and ISG gene expression by Q-PCR in B16F10; format: cell-based, mouse; settings: 10 μM, 72 h
Description: Method: B16F10 cells were cultured with RPMI medium 1640+10% FBS+1% PS, and the remaining cells were cultured with DMEM+10% FBS+1% PS. 5×10^5 B16F10 and 4T1 cells were plated in 6-well plates and adhered for 12 hours, and then treated with simvastatin and zoledronic acid in the figure, and the control group was treated with normal culture medium. A part of the cells treated with the drugs were lysed with 1 ml of Trizol, and RNA was extracted. The expression of IFN-β1, IRF7, IFI44L, IL-15, MAGEB-2 and other genes was detected by LightCycler® 480 II using a Q-PCR method (see table 3 for the primer sequence). In addition, the rescue effect of GGOH on the role of simvastatin and zoledronic acid to promote the release of type I interferon (IFN-β1) and the expression of type I interferon-related stimulated genes ISGs was also tested.

B16F10 cells [9] = assay: B16F10 subcutaneous tumor, combination with PD-1 antibody; format: in vivo; settings: Zol 1 mg/kg, Sim 2 mg/kg, PD-1 200 μg/mouse, i.p.
B16F10 cells [10] = assay: B16F10 lung metastasis model, tail vein injection; format: in vivo, mouse; settings: Zol 1 mg/kg every 6 days, Sim 2 mg/kg every two days; 25th day after administration
A20 cells = assay: A20 subcutaneous tumor in BALB/c mice and BALB/c nude mice; format: in vivo, mouse
B16F10 cells [11] = assay: CRT and ERp57 on the cell membrane surface, in vitro flow cytometry; format: cell-based, mouse; settings: Sim 10 μM 24 h, Zol 20 μM 60 h
4T1 cells [12] = assay: 4T1 subcutaneous tumor, combination with the radiation therapy; format: in vivo, mouse; settings: Zol 1 mg/kg every 6 days, Sim 2 mg/kg every two days
Luci-4T1 cells = assay: In situ Luci-4T1 breast cancer metastasis model in BALB/c and BALB/c nude mice; format: in vivo, mouse; settings: for metastasis in the lungs / systemic metastasis, in-vivo imaging: BALB/c mice, 28th day after administration; for number of lung metastatic foci / systemic tumor metastasis, in-vivo imaging / lung metastasis, imaging of isolated lungs: BALB/c nude mice; for systemic tumor metastasis, in-vivo imaging: 21st day of administration; for lung metastasis, imaging of isolated lungs: versus control group
MC38 cells = assay: Type I interferon and ISG gene expression by Q-PCR in MC38; format: cell-based, mouse; settings: 10 μM, 72 h
[13] = BALB/c nude mice without T cells
[14] = immune-intact BALB/c mice, Zol 1 mg/kg every 6 days, Sim 2 mg/kg every two days

| SMILES | antitumor activity (CT26 cells [1]; [13]) | antitumor activity (CT26 cells [1]; [14]) | tumor size versus untreated-DC control and TRP2 group (B16F10 cells [2]) | antitumor activity (4T1 cells [3]; [13]) | antitumor activity (4T1 cells [3]; [14]) | expression of Grp78, ATF6, IRE1 and PERK (endoplasmic reticulum stress) (B16F10 cells [4]) | phagocytosis of tumor cells by DC cells, immunofluorescence, versus control group (B16F10 cells [5]) | number of tumor infiltrating CD4 positive T lymphocytes (4T1 cells [6]) | number of tumor infiltrating CD8 positive T lymphocytes (4T1 cells [6]) | number of tumor infiltrating CD86 positive DC cells (4T1 cells [6]) | antitumor activity in mice injected with CD8 antibody (CT26 cells [7]) | proliferation of CD4 cells and CD8 cells (BMDC cells) | release of cytokines (IFN-γ and TNF-α) (BMDC cells) | expression of IFN-β1, ISGs (IFI27, IFI44), IRF7, IL-15 and MAGEB2 (B16F10 cells [8]) | antitumor activity of single agents (B16F10 cells [9]) | lung metastasis of B16F10 cells (B16F10 cells [10]) | antitumor activity (A20 cells; [13]) | antitumor activity (A20 cells; [14]) | expression of CRT on the membrane surface versus control group (B16F10 cells [11]) | expression of ERp57 on the membrane surface versus control group (B16F10 cells [11]) | further results |
| --- | --- | --- | --- | --- | --- | --- | --- | --- | --- | --- | --- | --- | --- | --- | --- | --- | --- | --- | --- | --- | --- |
| CCC(C)(C)C(=O)O[C@H]1C[C@@H](C)C=C2C=C[C@H](C)[C@H](CC[C@@H]3C[C@@H](O)CC(=O)O3)[C@H]21 [simvastatin] | disappeared | significant antitumor activity | significantly smaller tumor size | disappeared | significant antitumor activity | significant increase | phagocytosed more red tumor cells | increased | increased | increased | disappeared | significantly enhanced | significantly increased | increased significantly | certain antitumor activity | significantly inhibit | disappeared | significant antitumor activity | about twice that of the control group | about twice that of the control group | tumor volume of single treatment versus control group (4T1 cells [12]): significantly reduced; metastasis in the lungs (Luci-4T1 cells): significantly lower than that of the control group; systemic metastasis, in-vivo imaging (Luci-4T1 cells): very weak metastasis signs; number of lung metastatic foci (Luci-4T1 cells): not significantly different; systemic tumor metastasis, in-vivo imaging (Luci-4T1 cells): no difference in systemic metastasis; lung metastasis, imaging of isolated lungs (Luci-4T1 cells): no significant difference in lung metastasis; expression of IFN-β1, ISGs (IFI27, IFI44), IRF7, IL-15 and MAGEB2 (MC38 cells): increased significantly |
| O=P(O)(O)C(O)(Cn1ccnc1)P(=O)(O)O [zoledronic acid] | disappeared | significant antitumor activity | significantly smaller tumor size | disappeared | significant antitumor activity | significant increase | phagocytosed more red tumor cells | increased | increased | increased | disappeared | significantly enhanced | significantly increased | increased significantly | certain antitumor activity | significantly inhibit | disappeared | significant antitumor activity | about twice that of the control group | about twice that of the control group | antitumor activity in mice injected with CD4 antibody (CT26 cells [7]; CD4 neutralizing antibody 50 ug/mouse): disappeared; tumor volume of single treatment versus control group (4T1 cells [12]): significantly reduced; metastasis in the lungs (Luci-4T1 cells): significantly lower than that of the control group; systemic metastasis, in-vivo imaging (Luci-4T1 cells): did not show metastasis signs; number of lung metastatic foci (Luci-4T1 cells): not significantly different; systemic tumor metastasis, in-vivo imaging (Luci-4T1 cells): no difference in systemic metastasis; lung metastasis, imaging of isolated lungs (Luci-4T1 cells): no significant difference in lung metastasis; expression of IFN-β1, ISGs (IFI27, IFI44), IRF7, IL-15 and MAGEB2 (MC38 cells): increased significantly |

— US20210008084A1, “MEVALONATE PATHWAY INHIBITOR AND PHARMACEUTICAL COMPOSITION THEREOF” (TSINGHUA UNIVERSITY, priority 2017, published 2021)
